Laboratory results from the supplement of paper PMC6078165.
The reference is the same well before dosing, and untreated signal decays as well.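 Fibroblast labels denote human fibroblasts, mainly primary ones from uterus (C12385, HUF), lung (H6013), bone (Hs27A), adrenal (HADF) and skin (WS1), plus mammary HMF and breast cancer-associated Hs343T. Cancer cells are basal-like or mesenchymal-like triple-negative breast cancer lines. A hit is a response shift exceeding 3x replicate standard deviation. The tissue of the other fibroblasts is not given here.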

Tested on: MDAMB436
Experiment: relative JC-1 red fluorescence (viability) vs pre-drug, coculture with fibroblast (fraction); higher = more viable cancer cells
Method: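 JC-1 labelled TNBC cells cocultured 1:1 (1,500 cells each) with CellTrace Violet stained primary or stromal fibroblasts in 384-well plates in FluoroBrite medium, treated with one of 42 anticancer drugs at 0.1, 1, 10 or 100 uM. JC-1 red fluorescence (mitochondrial integrity in cancer cells only) was read by plate reader every 8 h for 72 h. Values are normalised to each well's pre-drug value. The stock of one drug was tenfold lower, so its dose labels may be too high.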

CCC1=C[C@@H]2CN(C1)Cc1c([nH]c3ccccc13)[C@@](C(=O)OC)(c1cc3c(cc1OC)N(C)[C@H]1[C@@](O)(C(=O)OC)[C@H](OC(C)=O)[C@]4(CC)C=CCN5CC[C@]31[C@@H]54)C2 [Vinorelbine]
relative JC-1 red fluorescence
Conditions	8 h	16 h	24 h	32 h	40 h	48 h	56 h	64 h	72 h
0.1 µM, coculture fibroblast: C12385	0.8364	0.699	0.7025	0.6227	0.5848	0.5608	0.54983	0.537	0.546
0.1 µM, coculture fibroblast: H6013	0.906	0.806	0.81	0.823	0.842	0.877	0.868	0.875	0.857
0.1 µM, coculture fibroblast: H6019	0.765	0.713	0.712	0.667	0.659	0.655	0.643	0.64	0.64
0.1 µM, coculture fibroblast: H6076	0.767	0.7304	0.74	0.717	0.7241	0.719	0.76	0.769	0.788
0.1 µM, coculture fibroblast: H6231	0.8007	0.723	0.704	0.64	0.62	0.592	0.585	0.565	0.549
0.1 µM, coculture fibroblast: HADF	0.878	0.773	0.754	0.7241	0.714	0.719	0.666	0.665	0.637
0.1 µM, coculture fibroblast: HCFa	0.871	0.758	0.731	0.693	0.663	0.67	0.612	0.606	0.546
0.1 µM, coculture fibroblast: HCPF	0.818	0.743	0.737	0.684	0.673	0.643	0.627	0.621	0.609
0.1 µM, coculture fibroblast: HHSteC	0.901	0.868	0.882	0.877	0.808	0.792	0.854	0.841	0.798
0.1 µM, coculture fibroblast: HMF	0.8053	0.705	0.691	0.647	0.64	0.602	0.6132	0.588	0.5863
0.1 µM, coculture fibroblast: HPFa	0.922	0.8634	0.8032	0.7681	0.7578	0.7706	0.7069	0.695	0.651
0.1 µM, coculture fibroblast: HUF	0.886	0.777	0.753	0.678	0.626	0.592	0.563	0.542	0.543
0.1 µM, coculture fibroblast: Hs5	0.811	0.712	0.716	0.67	0.669	0.634	0.653	0.629	0.642
0.1 µM, coculture fibroblast: Hs27A	0.884	0.845	0.79	0.777	0.767	0.832	0.773	0.776	0.711
0.1 µM, coculture fibroblast: Hs343T	0.787	0.719	0.694	0.6576	0.634	0.5962	0.5857	0.575	0.566
0.1 µM, coculture fibroblast: WS1	0.838	0.715	0.715	0.634	0.605	0.587	0.569	0.5629	0.5664
1 µM, coculture fibroblast: C12385	0.8349	0.7278	0.726	0.663	0.632	0.605	0.577	0.565	0.558
1 µM, coculture fibroblast: H6013	0.895	0.897	0.882	0.892	0.869	0.803	0.856	0.831	0.787
1 µM, coculture fibroblast: H6019	0.792	0.7634	0.783	0.73	0.727	0.718	0.701	0.691	0.686
1 µM, coculture fibroblast: H6076	0.82	0.78	0.785	0.742	0.715	0.68	0.689	0.681	0.673
1 µM, coculture fibroblast: H6231	0.838	0.758	0.718	0.642	0.606	0.57	0.556	0.5282	0.5
1 µM, coculture fibroblast: HADF	0.88	0.805	0.802	0.766	0.755	0.772	0.705	0.6986	0.643
1 µM, coculture fibroblast: HCFa	0.8908	0.79	0.7568	0.728	0.706	0.706	0.64	0.628	0.571
1 µM, coculture fibroblast: HCPF	0.915	0.834	0.8	0.737	0.692	0.644	0.608	0.585	0.5522
1 µM, coculture fibroblast: HHSteC	0.861	0.828	0.805	0.768	0.768	0.777	0.717	0.697	0.64
1 µM, coculture fibroblast: HMF	0.8551	0.803	0.803	0.749	0.716	0.671	0.66504	0.63879	0.6158
1 µM, coculture fibroblast: HPFa	0.949	0.891	0.8588	0.8198	0.82	0.8241	0.7594	0.7381	0.685
1 µM, coculture fibroblast: HUF	0.902	0.8241	0.8043	0.728	0.675	0.6404	0.607	0.584	0.57
1 µM, coculture fibroblast: Hs5	0.806	0.761	0.7638	0.7044	0.695	0.655	0.655	0.632	0.623
1 µM, coculture fibroblast: Hs27A	0.844	0.829	0.853	0.825	0.838	0.846	0.746	0.789	0.68
1 µM, coculture fibroblast: Hs343T	0.806	0.76	0.7566	0.707	0.672	0.637	0.615	0.596	0.583
1 µM, coculture fibroblast: WS1	0.837	0.765	0.773	0.699	0.658	0.627	0.601	0.574	0.556
10 µM, coculture fibroblast: C12385	0.815	0.778	0.769	0.709	0.671	0.6461	0.606	0.5732	0.552
10 µM, coculture fibroblast: H6013	0.844	0.815	0.819	0.82	0.791	0.799	0.7458	0.7096	0.651
10 µM, coculture fibroblast: H6019	0.799	0.792	0.787	0.736	0.716	0.691	0.656	0.6169	0.593
10 µM, coculture fibroblast: H6076	0.762	0.7257	0.726	0.657	0.622	0.58	0.546	0.518	0.495
10 µM, coculture fibroblast: H6231	0.857	0.816	0.781	0.7048	0.648	0.594	0.551	0.504	0.473
10 µM, coculture fibroblast: HADF	0.898	0.917	0.923	0.929	0.909	0.909	0.842	0.805	0.746
10 µM, coculture fibroblast: HCFa	0.832	0.842	0.858	0.852	0.846	0.862	0.798	0.791	0.731
10 µM, coculture fibroblast: HCPF	0.844	0.792	0.774	0.698	0.631	0.579	0.52	0.485	0.44694
10 µM, coculture fibroblast: HHSteC	0.829	0.818	0.7933	0.7752	0.7613	0.757	0.69	0.662	0.613
10 µM, coculture fibroblast: HMF	0.845	0.813	0.795	0.75	0.7002	0.6405	0.5889	0.529	0.495
10 µM, coculture fibroblast: HPFa	0.871	0.839	0.84	0.798	0.799	0.795	0.736	0.718	0.667
10 µM, coculture fibroblast: HUF	0.873	0.829	0.827	0.768	0.714	0.663	0.629	0.6	0.587
10 µM, coculture fibroblast: Hs5	0.82	0.751	0.751	0.685	0.626	0.5667	0.542	0.483	0.46
10 µM, coculture fibroblast: Hs27A	0.895	0.893	0.7809	0.733	0.743	0.756	0.773	0.662	0.758
10 µM, coculture fibroblast: Hs343T	0.825	0.832	0.825	0.793	0.752	0.707	0.66431	0.6247	0.593
10 µM, coculture fibroblast: WS1	0.832	0.794	0.776	0.719	0.702	0.67	0.634	0.59	0.561
100 µM, coculture fibroblast: C12385	0.782	0.768	0.672	0.453	0.341	0.295	0.25	0.216	0.195
100 µM, coculture fibroblast: H6013	0.879	0.777	0.6449	0.519	0.416	0.398	0.328	0.289	0.239
100 µM, coculture fibroblast: H6019	0.86	0.822	0.742	0.595	0.504	0.441	0.388	0.345	0.306
100 µM, coculture fibroblast: H6076	0.948	0.8393	0.737	0.59	0.429	0.324	0.254	0.208	0.167
100 µM, coculture fibroblast: H6231	0.947	0.869	0.762	0.597	0.429	0.326	0.26	0.216	0.171
100 µM, coculture fibroblast: HADF	0.893	0.77	0.778	0.625	0.541	0.533	0.446	0.418	0.356
100 µM, coculture fibroblast: HCFa	0.833	0.817	0.727	0.555	0.459	0.444	0.354	0.331	0.261
100 µM, coculture fibroblast: HCPF	0.714	0.733	0.94	0.836	0.636	0.487	0.351	0.287	0.225
100 µM, coculture fibroblast: HHSteC	0.799	0.758	0.623	0.478	0.4155	0.3985	0.326	0.29	0.234
100 µM, coculture fibroblast: HMF	0.956	0.865	0.722	0.589	0.44	0.31	0.22	0.151	0.109
100 µM, coculture fibroblast: HPFa	0.888	0.832	0.862	0.723	0.756	0.735	0.629	0.594	0.514
100 µM, coculture fibroblast: HUF	0.867	0.826	0.661	0.465	0.359	0.305	0.274	0.238	0.218
100 µM, coculture fibroblast: Hs5	0.941	0.911	0.819	0.636	0.492	0.364	0.286	0.231	0.181
100 µM, coculture fibroblast: Hs27A	0.82	0.762	0.631	0.502	0.459	0.486	0.373	0.341	0.268
100 µM, coculture fibroblast: Hs343T	0.943	0.891	0.806	0.664	0.516	0.399	0.301	0.249	0.207
100 µM, coculture fibroblast: WS1	0.8054	0.759	0.669	0.52	0.432	0.387	0.338	0.298	0.27
